PubChem BioAssay AID743255 (National Center for Advancing Translational Sciences (NCATS), 2014)
The campaign covered roughly 390,000 compounds. About 910 (0.23%) were called active. The shares of active, inactive and inconclusive entries below differ from those in the screen. Calls come from the whole dose curve; as a rule, active = well fitted inhibition curve with a large enough effect; inconclusive = small, poorly fitted or top-dose-only effect; inactive = no such curve, though single readings can be large or run the other way. Potencies of inconclusive entries are doubtful fits and often do not repeat.

Sequences of proteins named here, by UniProt entry; tags and fusion partners are left off. A change or cut given only in a name is not applied to a line headed by its entry.
UniProt O94782: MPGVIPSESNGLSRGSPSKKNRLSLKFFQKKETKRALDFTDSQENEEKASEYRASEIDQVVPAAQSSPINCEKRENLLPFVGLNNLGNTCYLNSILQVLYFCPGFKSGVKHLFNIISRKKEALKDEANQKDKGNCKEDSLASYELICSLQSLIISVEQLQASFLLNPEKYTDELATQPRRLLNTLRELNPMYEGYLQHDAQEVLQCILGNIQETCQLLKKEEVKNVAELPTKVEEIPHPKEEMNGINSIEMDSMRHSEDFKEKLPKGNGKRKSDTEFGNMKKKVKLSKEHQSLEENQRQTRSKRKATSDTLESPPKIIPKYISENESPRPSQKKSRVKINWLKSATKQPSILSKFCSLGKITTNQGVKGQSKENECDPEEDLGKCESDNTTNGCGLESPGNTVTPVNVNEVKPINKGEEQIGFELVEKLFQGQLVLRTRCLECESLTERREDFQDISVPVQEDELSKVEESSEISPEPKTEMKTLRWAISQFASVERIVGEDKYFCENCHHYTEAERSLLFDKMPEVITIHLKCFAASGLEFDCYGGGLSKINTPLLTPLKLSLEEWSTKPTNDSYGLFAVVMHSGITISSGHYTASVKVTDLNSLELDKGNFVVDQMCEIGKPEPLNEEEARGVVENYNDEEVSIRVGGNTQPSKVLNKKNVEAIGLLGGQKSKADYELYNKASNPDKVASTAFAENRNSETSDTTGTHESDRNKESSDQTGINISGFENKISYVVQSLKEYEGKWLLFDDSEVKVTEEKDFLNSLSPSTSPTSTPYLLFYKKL

Target: Ubiquitin carboxyl-terminal hydrolase 1 (Homo sapiens) (UniProt O94782)
Experiment: Inhibitors of USP1/UAF1: Primary Screen; note: nearly all actives have a fitted effect of over 60% in size
Details: recombinant USP1/UAF1, Ub-Rhodamine cleavage fluorescence; activity change, negative = inhibition: at 57.1 µM (top of the series)
Procedure, shortened: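 High-throughput fluorogenic screen: 1nM USP1/UAF1 complex, Ub-Rho substrate 150nM final, 50mM HEPES pH 7.8 with 0.5mM EDTA, 0.1 mg/ml BSA, 1mM TCEP and 0.01% Tween-20.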
% is set by controls: 0 for no effect and ±100 for the full control effect; potency is the fitted concentration of half-maximal effect.

Row | Compound | Potency | activity change, negative = inhibition
1 | CSc1nc(Cl)cc(Nc2ccccc2N)n1 | inconclusive: 8.91 µM [inhibitor, partial curve] | 
2 | Cc1ccc(-c2ccc(=O)n(Cc3c(F)cccc3Cl)n2)cc1 | inconclusive: 1.41 µM [inhibitor, full curve] | 
3 | C=CC[C@H](CC(=O)N(CCO)Cc1ccccc1)C(=O)N[C@H](COC(=O)[C@H](CC=C)CC(=O)OC(C)(C)C)Cc1c[nH]c2ccccc12 | inconclusive: 50.1 µM [inhibitor, partial curve, poor fit] | 
4 | CN(Cc1ccccc1)C(=O)c1ccc(NC(=O)Cc2ccc(NC(=O)C3CCCN(C(=O)C4CC4)C3)cc2)cc1 (centres undefined) | inconclusive: 50.1 µM [inhibitor, partial curve, poor fit] | 
5 | Cc1cccc2c1N(Cc1ccccc1OCCC(C)C)C(=O)C2=O | inconclusive: 0.1 µM [inhibitor, full curve, poor fit] | 
6 | Cc1cc(C)c(C(=O)N2CCCC(CNS(=O)(=O)c3cccs3)C2)o1 (centres undefined) | inconclusive: 79.4 µM [inhibitor, partial curve, poor fit] | 
7 | Cc1[nH]c2ccccc2c1/C=N/Nc1ccc([N+](=O)[O-])cc1S(=O)(=O)Nc1ccc(Cl)cc1 | inactive | 
8 | O=C(CSC1=NCCS1)c1ccc(Cl)cc1 | inactive | 
9 | CCN(CC)C(=O)c1c(C)[nH]c(=S)c(C#N)c1-c1ccco1 | inactive | 
10 | NC(=O)CC(NC(=O)Cc1ccc(Cl)cc1)c1ccc(NCCN2CCOCC2)c([N+](=O)[O-])c1 (centres undefined) | inconclusive: 5.01 µM [inhibitor, full curve, poor fit] | 
11 | Cc1cccc(NC2=C/C(=N/S(=O)(=O)c3cccs3)c3ccccc3C2=O)c1 | inconclusive: 3.55 µM [inhibitor, full curve] | 
12 | Cn1c(SCc2nc(-c3ccc(Cl)cc3)no2)nnc1-c1ccco1 | inconclusive: 35.5 µM [inhibitor, partial curve] | 
13 | CCC1CCCCN1C(=O)c1cc2cc(Br)ccc2oc1=O (centres undefined) | inconclusive: 39.8 µM [inhibitor, partial curve, poor fit] | 
14 | O=C(O)CN1C(=O)CCS(=O)c2ccccc21 (centres undefined) | inconclusive: 0.794 µM [inhibitor, full curve, poor fit] | 
15 | CC(=O)c1ccc(NS(=O)(=O)c2c(C)nc3scc(C)n3c2=O)cc1 | inactive | 
16 | CC1CCN(C(=O)CCN2C(=O)/C(=C/c3cccs3)SC2=S)CC1 | inconclusive: 50.1 µM [inhibitor, single point] | 
17 | C[C@@H]1CN([C@H](C)CO)C(=O)c2c(c3ccccc3n2C)-c2ccccc2CO[C@H]1CN(C)Cc1ccc(C(F)(F)F)cc1 | inconclusive: 10 µM [inhibitor, full curve, poor fit] | 
18 | Cn1c(=O)n(C)c2cc([N+](=O)[O-])c(N3CCN(C(=O)c4cccc(Cl)c4)CC3)cc21 | inactive | 
19 | COC(=O)c1sc(N2C(=O)C(O)=C(C(=O)c3ccc(C)o3)C2c2ccc([N+](=O)[O-])cc2)nc1C (centres undefined) | inconclusive: 22.4 µM [inhibitor, partial curve] | 
20 | COC(=O)CNC(=O)c1sc2ncn(CC(=O)Nc3ccc(C)c(Cl)c3)c(=O)c2c1C | inactive | 
21 | CC(CCn1cccn1)NC(=O)c1cc(COc2ccc(F)cc2F)on1 (centres undefined) | inactive | 
22 | Cc1ccc(S(=O)(=O)n2nc(C)c(C#N)c2N)cc1 | inactive | 

Row | Compound | Potency | activity change, negative = inhibition
23 | Cc1cccc(-c2noc(-c3cccnc3NCc3ccc(Cl)cc3)n2)c1 | inconclusive: 44.7 µM [inhibitor, partial curve, poor fit] | 
24 | Cn1c(=O)[nH]c(=O)c2c1nc(Sc1ccccc1)n2CCc1ccccc1 | inconclusive: 44.7 µM [inhibitor, partial curve, poor fit] | 
25 | Cc1sc2ncn(CC(=O)Nc3ccc(C(C)C)cc3)c(=O)c2c1S(=O)(=O)N1CCN(c2ncccn2)CC1 | inactive | 
26 | COc1cccc(-c2nc(C(=O)NCC3CCCO3)cc3c2[nH]c2ccccc23)c1 (centres undefined) | inconclusive: 44.7 µM [inhibitor, partial curve] | 
27 | Cc1ccc(-c2nnn(CCC(=O)Nc3ccc4c(c3)OCO4)n2)cc1 | inconclusive: 17.8 µM [inhibitor, single point] | 
28 | COc1cccc(-c2cc(C(=O)N3CCc4ccccc4C3)no2)c1 | inconclusive: 31.6 µM [inhibitor, partial curve] | 
29 | O=C1c2ccccc2C(=O)N1CCc1nc(-c2ccc(Cl)cc2)no1 | inconclusive: 50.1 µM [inhibitor, partial curve, poor fit] | 
30 | Cc1nn(-c2ccc(N3CCCCC3)nn2)c(C)c1CCC(=O)Nc1ccc(F)cc1F | inactive | 
31 | O=C(CSc1n[nH]c(-c2ccncc2)n1)Nc1ccc(Cl)c(C(=O)O)c1 | inconclusive: 15.8 µM [inhibitor, partial curve, poor fit] | 
32 | CN(C)C(=O)c1cc(C(=O)c2ccc(F)cc2C(F)(F)F)c[nH]1 | inactive | 
33 | CCOc1ccc2[nH]cc(C(=O)N3CCN(C4CCCCC4)CC3)c(=O)c2c1 | inconclusive: 1.41 µM [inhibitor, full curve, poor fit] | 
34 | Cc1ccccc1C(=O)N1CC(=O)Nc2ccc(Cl)cc2C1c1ccccc1 (centres undefined) | inactive | 
35 | Cc1cc(C)cc(NC(=S)N2CCC(c3nc4ccccc4s3)CC2)c1 | inactive | 
36 | CCOC(=O)C1=C(C)N=c2s/c(=C\c3ccc(C(=O)O)cc3)c(=O)n2C1c1ccc(OC)cc1OC (centres undefined) | inactive | 
37 | Cc1ccc(NC(=O)C2CCN(S(=O)(=O)c3ccc4c(c3)NC(=O)C(C)S4)CC2)c(Cl)c1 (centres undefined) | inconclusive: 44.7 µM [inhibitor, partial curve, poor fit] | 
38 | O=C(c1cccs1)N1CCN(c2nnc(-c3ccccc3)c3ccccc23)CC1 | inactive | 
39 | CCOC(=O)c1noc2nc(C)n(CC(=O)NC(C)CC)c(=O)c12 (centres undefined) | inconclusive: 12.6 µM [inhibitor, partial curve] | 
40 | O=C(ONc1ccc(N=NC(=O)c2ccccc2O)cc1)c1ccccc1 | inconclusive: 39.8 µM [inhibitor, partial curve] | 
41 | Cc1ccc(Cl)cc1NC(=O)CSc1nccn1C | inconclusive: 35.5 µM [inhibitor, partial curve] | 
42 | CC(C)(C)NC(=O)C(c1ccc(-c2ccccc2)cc1)N(C[C@H]1CC[C@@H]([C@@H]2CC[C@H](CO)O2)O1)C(=O)c1ccc(C(C)(C)C)cc1 (some centres undefined) | inactive | 
43 | Cc1cc(N2CCC(C)CC2)nc2ccc(NC(=O)Cc3c(F)cccc3Cl)cc12 | inactive | 
44 | CC1=C(C(N)=O)C(c2ccccn2)n2nc(-c3ccccc3Cl)nc2N1 (centres undefined) | inactive | 

Row | Compound | Potency | activity change, negative = inhibition
45 | COc1ccc(Cn2c(O)c(C=Nc3ccccc3C(=O)O)c3ccccc3c2=O)cc1 | inconclusive: 31.6 µM [inhibitor, partial curve, poor fit] | 
46 | CC(C)C1NC(C(=O)O)Cc2c1[nH]c1ccccc21 (centres undefined) | inconclusive: 44.7 µM [inhibitor, partial curve, poor fit] | 
47 | Cc1ccccc1CNC(=O)C(C)N(c1ccccc1)S(C)(=O)=O (centres undefined) | inactive | 
48 | Cc1ccc(NC(=O)C2CCCN(C(=O)c3cnn(-c4ccc(F)cc4)c3-n3cccc3)C2)c(Cl)c1 (centres undefined) | inactive | 
49 | Nc1nonc1C(=O)NCCNC(=O)c1ccc(Cl)cc1 | inconclusive: 5.62 µM [inhibitor, single point] | 
50 | Cc1oc(-c2cccc(Cl)c2)nc1CS(=O)(=O)CC(=O)NC(C)CCc1ccccc1 (centres undefined) | inactive | 
51 | O=c1oc(-c2ccccc2F)nc2c1cnn2-c1ccccc1 | inconclusive: 28.2 µM [inhibitor, partial curve, poor fit] | 
52 | CC(C)NC(=S)N/N=C/c1sc(N2CCCCC2)nc1-c1cccs1 | inconclusive: 39.8 µM [inhibitor, partial curve, poor fit] | 
53 | Nc1cccc2c1C(=O)N(C(=O)/C=C/c1cccc(Br)c1)C2=O | inconclusive: 0.316 µM [inhibitor, full curve, poor fit] | 
54 | COc1cc(-c2nnc(SCc3cc(=O)oc4cc(O)c(O)cc34)o2)cc(OC)c1OC |  | inconclusive: -10.4% [inhibitor]
55 | Cc1ccc(C2CC(=O)NC(SCCC(C)C)=C2C#N)cc1 (centres undefined) | inconclusive: 6.31 µM [inhibitor, full curve] | 
56 | Cc1cc(C)n2[nH]c(=O)cc2n1 | inconclusive: 7.94 µM [inhibitor, partial curve] | 
57 | COc1ccc(C2=CC(=O)C[C@H](c3ccc(Cl)cc3)C2)cc1 |  | inconclusive: -34.1% [inhibitor]
58 | Cc1cccc(CCN(CC(=O)NC2CCCCC2)C(=O)c2csnn2)c1 | inconclusive: 50.1 µM [inhibitor, partial curve, poor fit] | 
59 | CC(C)C(=O)N1CCC2(CC1)Oc1ccc(Cl)cc1C(=O)C21CC(c2ccccc2)=NO1 (centres undefined) | inconclusive: 0.126 µM [inhibitor, full curve, poor fit] | 
60 | CCN(C(=O)c1cc2c(=O)oc3ccc(C)cc3c2s1)c1ccccc1C | inconclusive: 44.7 µM [inhibitor, partial curve, poor fit] | 
61 | COc1ccc(C(C(=O)NC2CCCC2)N(CCCO)C(=O)Cn2nnc(-c3ccc(C)o3)n2)cc1 (centres undefined) | inconclusive: 0.794 µM [inhibitor, full curve, poor fit] | 
62 | N#Cc1c(-c2ccccc2)nc(SCc2ccc([N+](=O)[O-])cc2)[nH]c1=O | inconclusive: 25.1 µM [inhibitor, partial curve] | 
63 | O=P1(NC2CCCCC2)OCC2(CO1)COP(=O)(NC1CCCCC1)OC2 (centres undefined) | inconclusive: 6.31 µM [inhibitor, partial curve] | 
64 | Cc1ccc(C)c(N(CC(=O)NC2CCCC2)C(=O)CCC(=O)Nc2nccs2)c1 | inactive | 

Part of the list above, set out differently.
CC(C)C(=O)N1CCC2(CC1)Oc1ccc(Cl)cc1C(=O)C21CC(c2ccccc2)=NO1 (centres undefined)
  Potency: inconclusive: 0.126 µM [inhibitor, full curve, poor fit]
CCN(C(=O)c1cc2c(=O)oc3ccc(C)cc3c2s1)c1ccccc1C
  Potency: inconclusive: 44.7 µM [inhibitor, partial curve, poor fit]
COc1ccc(C(C(=O)NC2CCCC2)N(CCCO)C(=O)Cn2nnc(-c3ccc(C)o3)n2)cc1 (centres undefined)
  Potency: inconclusive: 0.794 µM [inhibitor, full curve, poor fit]
N#Cc1c(-c2ccccc2)nc(SCc2ccc([N+](=O)[O-])cc2)[nH]c1=O
  Potency: inconclusive: 25.1 µM [inhibitor, partial curve]
